# Results reported in PubChem BioAssay AID624156 (Broad Institute, 2012).
# The campaign covered roughly 46,000 compounds. About 900 (2%) were called active. The inconclusive results got no clear call from the source; some entries with a clear call stand among them for comparison. No stated cut-off is given here; in the data, active means ROS induction above about 79% (passing the limit was not always enough); inconclusive means no clear call, values can overlap the other calls.
# Experiment: ROS inducers in U2OS cancer cells, primary screen, cell-based, H2DCF-DA fluorescence (AID 624156);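 further: 0% = DMSO vehicle median and 100% = reference compound median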
# Details: at 10 µM, active compounds read high
row,Compound,ROS induction (% of piperlongumine)
1,COc1ccc(S(=O)(=O)N(CCO)c2ccccc2CN(C)C/C=C/c2ccc(Cl)cc2)cc1,inconclusive: 96.1%
2,C=CCOC(=O)[C@H]1[C@@H]2C(=O)O[C@@H](c3ccccc3)[C@@H](c3ccccc3)N2[C@@H](c2ccc(OCCOC(=O)[C@H]3C[C@H]4C(=O)N5CCC[C@H]5C(=O)N4[C@H]3c3cccc(OCCO)c3)cc2)[C@]12C(=O)Nc1ccccc12,inconclusive: 94.6%
3,Cc1ccc(NC(=O)c2nc[nH]c2C(=O)N2CCCCC2)c(C(=O)c2ccccc2)c1,inconclusive: 82%
4,Cc1ccc(S(=O)(=O)Nc2ccc3c(c2)CC(=O)N([C@H](C)CO)C[C@@H](C)[C@H](CN(C)Cc2ccc(-c4ccccc4)cc2)O3)cc1,inconclusive: 82.7%
5,COc1ccc(NC(=O)Nc2ccc3c(c2)C(=O)N([C@H](C)CO)C[C@@H](C)[C@@H](CN(C)Cc2ccncc2)O3)cc1,inconclusive: 409%
6,COc1ccc(S(=O)(=O)Nc2ccc3c(c2)C(=O)N([C@H](C)CO)C[C@H](C)[C@H](CN(C)C(=O)Nc2ccc(C(F)(F)F)cc2)OCCCC[C@@H](C)O3)cc1,inconclusive: 75%
7,CCOC(=O)C1C2C=CC3(O2)C1C(=O)N(Cc1ccccc1)C3C(=O)NCc1ccccc1 (configuration not stated),inactive: 46.5%
8,C[C@H]1CN([C@@H](C)CO)C(=O)Cc2cc(NS(C)(=O)=O)ccc2O[C@@H]1CN(C)Cc1ccc(Cl)c(Cl)c1,inconclusive: 86.6%
9,CCCNC(=O)[C@@H]1c2ccccc2C(=O)N(Cc2ccccc2OC)[C@H]1c1ccc(CO)cc1,inconclusive: 81.6%
10,FC(F)(F)COc1nc(N2CCCCC2)nc(N(c2ccccc2)c2ccccc2)n1,inconclusive: 82.8%
11,O=C(NO)c1ccc(C(=O)N/N=C/c2cccc(B(O)O)c2)cc1,inconclusive: 82%
12,CC(C)C[C@H]1C(=O)N2CCC[C@H]2[C@]2(O)O[C@](NC(=O)[C@@H]3C=C4c5cccc6[nH]c(Br)c(c56)CC4N(C)C3)(C(C)C)C(=O)N12 (some centres not stated),inconclusive: 80%
13,COc1ccc(C(=O)NCCn2cc(SC(C)c3ccccc3)c3ccccc32)cc1 (configuration not stated),inactive: 10.3%
14,Cc1ccc(S(=O)(=O)N(C)C[C@@H]2Oc3c(NS(=O)(=O)c4cccs4)cccc3C(=O)N([C@H](C)CO)C[C@@H]2C)cc1,inactive: -8.28%
15,CC(C)NC(=O)N(C)C[C@H]1Oc2ccc(NC(=O)Cn3cnnn3)cc2C(=O)N([C@@H](C)CO)C[C@@H]1C,inconclusive: 80.1%
16,COc1ccc(C#Cc2cnc3c(c2)C(=O)N([C@H](C)CO)C[C@H](C)[C@H](CN(C)S(=O)(=O)c2ccc(C)cc2)O3)cc1OC,active: 140%
17,C[C@H](CO)N1C[C@H](C)[C@@H](CN(C)Cc2ccc(Cl)c(Cl)c2)Oc2ccc(NS(=O)(=O)c3cccs3)cc2C1=O,inconclusive: 125%
18,O=C(Cn1c2ccccc2c2cn[nH]c(=O)c21)N1CCCCC1,inactive: -1.57%
19,C[C@H]1CN([C@@H](C)CO)C(=O)c2cc(NC(=O)C3CCCCC3)ccc2O[C@@H]1CN(C)Cc1ccc(Oc2ccccc2)cc1,active: 88.9%
20,COc1ccc(C2OCC3C2CO[C@H]3c2ccc(OC)c(OC)c2)cc1OC (some centres not stated),inconclusive: 132%
21,COc1ccccc1NC(=O)Cn1c(C(F)(F)F)nc2ccccc21,inconclusive: 111%

row,Compound,ROS induction (% of piperlongumine)
1,CC(C)(C)c1ccc(S(=O)(=O)N2CCN(c3ccc([N+](=O)[O-])c(NCc4cccnc4)c3)CC2)cc1,active: 98.4%
2,CCN1C(=O)/C(=C/C=C2\Sc3ccc(Cl)cc3N2C)SC1=S,inactive: -7.41%
3,C[C@H](CO)N1C[C@H](C)[C@@H](CN(C)Cc2ccc(-c3ccccc3)cc2)Oc2ccc(NC(=O)NC3CCCCC3)cc2C1=O,inconclusive: 84%
4,Cc1c(CCNC(NC(=O)c2ccc(Cl)cc2)(C(F)(F)F)C(F)(F)F)c2ccccc2n1C,inactive: 4.7%
5,C[C@H]1CN([C@@H](C)CO)C(=O)c2cc(NC(=O)Nc3ccc(F)cc3)ccc2O[C@H]1CN(C)S(=O)(=O)c1ccccc1,inconclusive: 738%
6,COC(=O)/C(=C/c1ccc2c(c1)OCO2)NC(=O)c1ccc(C(C)(C)C)cc1,inactive: -3.38%
7,C=CCNC(=O)[C@H]1[C@@H]2C(=O)O[C@@H](c3ccccc3)[C@@H](c3ccccc3)N2[C@@H](c2ccc(OCCO)cc2)[C@]12C(=O)N(C(=O)OCCOC)c1ccc(C#CC3=CCCCC3)cc12,active: 122%
8,O=C(O)CCCCCC(=O)N/N=C/c1ccccc1Cl,inconclusive: 81%
9,C[C@@H]1CCCCO[C@@H](CN(C)Cc2ccc3c(c2)OCO3)[C@@H](C)CN([C@H](C)CO)C(=O)c2cc(NS(=O)(=O)c3ccccc3)ccc2O1,inactive: 9.83%
10,C/C=C/C=C/C(=O)c1cc(C)c(O)c(C)c1O,active: 102%
11,CC(C)NC(=O)N(C)C[C@H]1Oc2c(NS(=O)(=O)c3cn(C)cn3)cccc2C(=O)N([C@H](C)CO)C[C@@H]1C,inconclusive: 99.6%
12,COc1ccc(S(=O)(=O)Nc2ccc3c(c2)CC(=O)N([C@H](C)CO)C[C@@H](C)[C@@H](CN(C)CC2CC2)O3)cc1,inactive: 2.46%
13,C[C@@H]1CN([C@H](C)CO)C(=O)c2cccc(NC(=O)c3ccc(-c4nccs4)cc3)c2O[C@@H]1CN(C)Cc1ccc(Oc2ccccc2)cc1,inconclusive: 77.4%
14,C[C@H](CO)N1C[C@H](C)[C@@H](CN(C)Cc2ccc(C(F)(F)F)cc2)Oc2ccc(N(C)C)cc2C1=O,inconclusive: 77.5%
15,C[C@H](CO)N1C[C@H](C)[C@H](CN(C)C(=O)NC2CCCCC2)Oc2ncc(-c3cccc(C(F)(F)F)c3)cc2C1=O,inconclusive: 80.8%
16,C[C@H]1CN([C@@H](C)CO)C(=O)Cc2cc(NS(=O)(=O)c3cn(C)cn3)ccc2O[C@H]1CN(C)C(=O)Nc1cccc2ccccc12,active: 121%
17,CCCc1cc(NC(C)c2ccccc2)n2c(nc3ccccc32)c1C#N (configuration not stated),inconclusive: 75.3%
18,C[C@@H]1CN([C@H](C)CO)C(=O)c2cccc(NC(=O)CCCCCC(=O)Nc3ccccc3N)c2O[C@H]1CN(C)CC1CC1,inconclusive: 77.6%
19,COCCOC(=O)N1C(=O)[C@@]2(c3cc(C#CCC(C(=O)OC)C(=O)OC)ccc31)[C@H](C(N)=O)[C@H]1C(=O)O[C@H](c3ccccc3)[C@H](c3ccccc3)N1[C@@H]2c1ccc(OCCO)cc1,inconclusive: 84.5%
20,CCOC(=O)c1cnc2c(Cl)c(Cl)ccc2c1N(C)Cc1ccccc1,inactive: 9.32%
21,C/C=C1\[C@H](O[C@@H]2O[C@H](CO)[C@@H](O)[C@H](O)[C@H]2O)OC=C(C(=O)OC)[C@H]1CC(=O)OC[C@H]1O[C@@H](OCCc2ccc(O)cc2)[C@H](O)[C@@H](O)[C@@H]1OC(=O)C[C@@H]1C(C(=O)OC)=CO[C@@H](O[C@@H]2O[C@H](CO)[C@@H](O)[C@H](O)[C@H]2O)/C1=C\C,inactive: -4.47%

row,Compound,ROS induction (% of piperlongumine)
1,C[C@H]1CN([C@@H](C)CO)C(=O)Cc2cc(N(C)C)ccc2O[C@@H]1CN(C)Cc1ccncc1,inactive: 8.42%
2,Cc1ccnc(NC(c2ccsc2)c2ccc3ccc(C)nc3c2O)c1 (configuration not stated),inconclusive: 119%
3,CN(C)C(=O)[C@@]1(Cc2ccccc2CN=[N+]=[N-])COC(c2ccc(OCCCO)cc2)=N1,inconclusive: 93%
4,O=C(CCCN1C(=O)S/C(=C\C=C\c2ccccc2)C1=O)Nc1ccc(C(=O)O)cc1,inconclusive: 84.4%
5,CC(C)NC(=O)N(C)C[C@H]1Oc2c(NS(=O)(=O)c3cn(C)cn3)cccc2C(=O)N([C@H](C)CO)C[C@H]1C,inactive: -3.53%
6,CCOC(=O)c1c(C)oc2ccc(OCC(=O)c3ccc(Cl)cc3)cc12,inconclusive: 75.9%
7,CN1CCN(c2ccccc2NC(=O)COc2ccc([N+](=O)[O-])cc2)CC1,inconclusive: 136%
8,COc1ccc([Si](C)(C)[C@@H]2[C@@H](CCO)O[C@]3(C(=O)N(Cc4ccccc4)c4ccc(N5CCC5=O)cc43)[C@H]2C)cc1,inconclusive: 110%
9,CCc1nc2c(cnn2-c2ccccc2)c(=O)n1CCc1ccccc1,inconclusive: 81.9%
10,CCn1cc(CN(C)C(=S)Nc2ccc(OC)c(OC)c2)c(C)n1,inconclusive: 82.3%
11,COc1ccc(S(=O)(=O)Nc2cccc3c2O[C@H](CN(C)Cc2ccc(Oc4ccccc4)cc2)[C@H](C)CN([C@@H](C)CO)C3=O)cc1,active: 110%
12,COc1cc2c(cc1NC(=O)CSc1nnnn1C)oc1ccccc12,inconclusive: 85.7%
13,CN(C)c1ccc(C(=C2C=CC(=[N+](C)C)C=C2)c2ccc(N(C)C)cc2)cc1,active: 341%
14,CCCCc1nc2sc3c(Cl)ncnc3c2c2c1COC(C)(C)C2,active: 113%
15,Cc1ccc(NC(=O)CNS(=O)(=O)c2ccccc2)c(C(=O)c2ccccc2)c1,inactive: -5.13%
16,C=CCN1C(=O)[C@]2(O[C@H](CCn3cc([C@H](O)c4ccccc4)nn3)[C@@H]([Si](C)(C)c3ccc(OC)cc3)[C@@H]2C)c2cc(N3CCOC3=O)ccc21,inconclusive: 80.2%
17,COc1ccc(-c2c(C)nn3c(N)c(-c4ccccc4)cnc23)cc1,active: 120%
18,COc1c(OC2OC(CO)C(O)C(O)C2O)cc(O)c2c1OC(c1ccccc1)CC2=O (configuration not stated),inconclusive: 85.7%
19,COc1ccc(C(=O)Nc2ccccc2C(=O)NC(C(=O)O)C(C)C)cc1 (configuration not stated),inactive: -12%
20,C[C@H]1CN([C@@H](C)CO)C(=O)Cc2cc(NS(=O)(=O)c3ccccc3)ccc2O[C@H]1CN(C)C,inconclusive: 94.8%

# 3 of the compounds above, tab-delimited.
row	Compound	ROS induction (% of piperlongumine)
6	COC(=O)/C(=C/c1ccc2c(c1)OCO2)NC(=O)c1ccc(C(C)(C)C)cc1	inactive: -3.38%
9	CCc1nc2c(cnn2-c2ccccc2)c(=O)n1CCc1ccccc1	inconclusive: 81.9%
12	COc1cc2c(cc1NC(=O)CSc1nnnn1C)oc1ccccc12	inconclusive: 85.7%
